In assay [1] the target is T1, TEF-mCherry (Drosophila melanogaster) (UniProt Q7K4M4).
T1 sequence: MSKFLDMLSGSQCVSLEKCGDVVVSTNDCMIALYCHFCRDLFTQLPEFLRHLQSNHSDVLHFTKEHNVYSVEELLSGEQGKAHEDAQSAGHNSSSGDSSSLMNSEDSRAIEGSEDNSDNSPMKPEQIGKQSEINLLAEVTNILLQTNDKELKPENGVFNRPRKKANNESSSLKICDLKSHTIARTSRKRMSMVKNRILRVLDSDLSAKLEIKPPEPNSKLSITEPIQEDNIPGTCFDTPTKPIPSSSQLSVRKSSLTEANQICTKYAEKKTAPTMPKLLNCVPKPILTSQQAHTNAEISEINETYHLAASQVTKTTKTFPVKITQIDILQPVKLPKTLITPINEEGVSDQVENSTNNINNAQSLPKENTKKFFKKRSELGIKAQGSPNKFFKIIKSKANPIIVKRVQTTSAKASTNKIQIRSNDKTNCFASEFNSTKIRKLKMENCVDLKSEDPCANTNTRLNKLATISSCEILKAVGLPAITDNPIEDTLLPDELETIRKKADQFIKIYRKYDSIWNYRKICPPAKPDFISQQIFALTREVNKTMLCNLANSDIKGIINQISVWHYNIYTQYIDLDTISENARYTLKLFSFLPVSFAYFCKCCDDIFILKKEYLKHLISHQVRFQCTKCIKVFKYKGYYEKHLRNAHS
The experiment in a line: co-IP; S2R+ cells transiently co-expressing the tagged proteins; cleared lysate (20 mM Tris-HCl pH 7.5, 300 mM NaCl, 2 mM MgCl2, 0.1% Nonidet P-40 Substitute, 5% glycerol, 0.5 mM EGTA, 1 mM DTT, Benzonase) on RFP-Trap agarose (anti-mCherry), 1 hour, 4°C; immunoblot.

The target in assay [2] is T2, TEF-EGFP (Drosophila melanogaster) (UniProt Q7K4M4).
T2 sequence: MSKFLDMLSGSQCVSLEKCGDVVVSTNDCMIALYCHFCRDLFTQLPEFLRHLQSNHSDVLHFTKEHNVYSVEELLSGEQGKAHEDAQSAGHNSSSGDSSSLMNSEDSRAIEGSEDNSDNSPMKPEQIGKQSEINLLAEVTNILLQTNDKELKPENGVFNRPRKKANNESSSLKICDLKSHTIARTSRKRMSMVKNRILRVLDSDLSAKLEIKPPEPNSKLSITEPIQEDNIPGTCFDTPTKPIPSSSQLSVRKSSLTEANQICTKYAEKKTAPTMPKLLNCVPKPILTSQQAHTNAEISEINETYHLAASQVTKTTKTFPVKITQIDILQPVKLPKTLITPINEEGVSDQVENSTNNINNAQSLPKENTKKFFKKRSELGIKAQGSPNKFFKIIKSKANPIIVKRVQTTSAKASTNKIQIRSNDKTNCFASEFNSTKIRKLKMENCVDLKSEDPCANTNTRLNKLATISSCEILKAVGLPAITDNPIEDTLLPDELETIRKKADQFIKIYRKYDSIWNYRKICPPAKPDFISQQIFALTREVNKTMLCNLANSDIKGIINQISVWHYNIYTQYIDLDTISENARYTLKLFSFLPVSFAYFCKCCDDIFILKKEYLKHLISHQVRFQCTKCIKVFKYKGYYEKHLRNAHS
As to the kind of experiment: co-IP; S2R+ cells transiently co-expressing the tagged proteins; cleared lysate (20 mM Tris-HCl pH 7.5, 300 mM NaCl, 2 mM MgCl2, 0.1% Nonidet P-40 Substitute, 5% glycerol, 0.5 mM EGTA, 1 mM DTT, Benzonase) on GFP-Trap agarose (anti-EGFP), 1 hour, 4°C; immunoblot. In general terms: In western blotting, separated proteins are transferred to a membrane and probed.

Assay [3] has as its target T3, TEF_Na-EGFP (Drosophila melanogaster) (UniProt Q7K4M4).
T3 sequence: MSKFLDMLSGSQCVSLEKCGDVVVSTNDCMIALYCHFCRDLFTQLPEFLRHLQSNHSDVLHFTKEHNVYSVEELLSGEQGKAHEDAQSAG
The assay is described as above.

The target in assay [4] is MNM-mCherry (Drosophila melanogaster). As to the kind of experiment: co-IP; S2R+ cells transiently co-expressing the tagged proteins; cleared lysate (20 mM Tris-HCl pH 7.5, 300 mM NaCl, 2 mM MgCl2, 0.1% Nonidet P-40 Substitute, 5% glycerol, 0.5 mM EGTA, 1 mM DTT, Benzonase) on RFP-Trap agarose (anti-mCherry), 1 hour, 4°C; immunoblot.
Assay [5] deals with UNO-mCherry (Drosophila melanogaster). Described as above.

No constants are given. Whether binding was seen depends on the method and setting. In cells and extracts the contact can be indirect. For some assays here: Binding can be weak; no strength is given. For some assays here: Sequences can lack the tags named with a protein.

Turning to MNM-EGFP (Drosophila melanogaster), the binding entry in assay [1] is “binds”.
Regarding MNM-mCherry (Drosophila melanogaster), the binding result in assay [2] and in assay [3] was “binds” throughout.
As for “Mod(mdg4)_C-mCherry (Drosophila melanogaster)”, in assay [2], the binding entry is listed as “no binding”.
The same measure, in the same setting: for “Mod(mdg4)_P-mCherry (Drosophila melanogaster)” the value was “no binding”.
On to SNM-EGFP (Drosophila melanogaster), for which the binding entry in assay [1] was “no binding”.

B1: TEF-EGFP (protein, UniProt Q7K4M4 1-649)
chain: MSKFLDMLSGSQCVSLEKCGDVVVSTNDCMIALYCHFCRDLFTQLPEFLRHLQSNHSDVLHFTKEHNVYSVEELLSGEQGKAHEDAQSAGHNSSSGDSSSLMNSEDSRAIEGSEDNSDNSPMKPEQIGKQSEINLLAEVTNILLQTNDKELKPENGVFNRPRKKANNESSSLKICDLKSHTIARTSRKRMSMVKNRILRVLDSDLSAKLEIKPPEPNSKLSITEPIQEDNIPGTCFDTPTKPIPSSSQLSVRKSSLTEANQICTKYAEKKTAPTMPKLLNCVPKPILTSQQAHTNAEISEINETYHLAASQVTKTTKTFPVKITQIDILQPVKLPKTLITPINEEGVSDQVENSTNNINNAQSLPKENTKKFFKKRSELGIKAQGSPNKFFKIIKSKANPIIVKRVQTTSAKASTNKIQIRSNDKTNCFASEFNSTKIRKLKMENCVDLKSEDPCANTNTRLNKLATISSCEILKAVGLPAITDNPIEDTLLPDELETIRKKADQFIKIYRKYDSIWNYRKICPPAKPDFISQQIFALTREVNKTMLCNLANSDIKGIINQISVWHYNIYTQYIDLDTISENARYTLKLFSFLPVSFAYFCKCCDDIFILKKEYLKHLISHQVRFQCTKCIKVFKYKGYYEKHLRNAHS
On to B1, for which the binding entry in assay [4] was “binds”; in assay [5], “no binding”.

Values taken from publication PMC9612826.
